Source: patent publication US6569404B1, “Phase shift colloids as ultrasound contrast agents” (priority 1993, dated 2003)
Some entries share one result that the patent states for a list of compounds. For some assays here: At least one structure is not confirmed: it was looked up by name or label, or the drawing left a doubt.

Assays:
[1] = Backscatter persistence and intensity of 2% mixtures in saline, 1000 mL water at 37° C., Hewlett-Packard 77020A; conditions: 1.0 mL in 1000 mL water at 37° C.
Procedure: The following emulsions were formulated and tested according to methods described in Example 18.
All solutions were made as a 2% solution in saline. A volume of 0.1 cc of each chemical was comminuted with 5 cc saline through a 3-way stopcock for 25 passes. A volume of 1.0 mL of the mixture was immediately injected through a 1.2 μm filter into a stirring water bath containing 1000 mL water at 37° C. The resulting backscatter was then recorded with the use of a Hewlett-Packard 77020A Ultrasound System at […].

[2] = cited from earlier work

Row | Structure (SMILES) | time over which backscatter diminished [1] | vapor pressure at ambient temperature [2]
1 | ClCCCl [1,2, Dichloroethane] | ≤ 1 min | 
2 | FC(F)(F)C(F)(F)C(F)(F)C(F)(F)C(F)(F)C(F)(F)C(F)(F)C(F)(F)F [Perfluorooctane, reference compound] |  | above 20 Torr
